Results deposited as PubChem BioAssay AID504774 (Drosophila RNAi Screening Center, 2011)
Screen: 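Fly genes whose loss alters survival after alkylation damage to DNA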 (primary screen). Cells: Drosophila Kc167 cells. Reagents: long dsRNA against Drosophila genes, about 0.25 µg dsRNA per well. Timing: about 6 days: 3 days knock-down, then 3 days with or without MMS. Treatment: methyl methanesulphonate 0.004% (w/v) for 3 days after knock-down. Measured: 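ATP-dependent luminescence as a measure of live cells in MMS-exposed wells, quantile normalised within each plate, with replicate values also given as a mean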. Direction: mean viability with MMS and viability with MMS: higher = more surviving cells after MMS.
In all, the deposit lists about 23,000 reagents; below is an unselected part of those that have a named target and a result. 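Values are quantile-normalised luminescence on an arbitrary scale; higher means more cells surviving MMS.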 Reagents against one gene are numbered here. A plus sign joins genes that one reagent is predicted to hit.

no.	gene	reagent	mean viability with MMS	viability with MMS, replicate 1	viability with MMS, replicate 2
1	CG1889 (GeneID 31928)	1	3.54e6	4.05e6	3.95e6
2	Blm (GeneID 41366)	1	3.47e6	3.92e6	3.93e6
3	Pstk + CG14210 + Tim9b	1	3.38e6	3.81e6	3.83e6
4	CG33263 (GeneID 2768952)	1	3.49e6	3.92e6	4.00e6
5	Sesn (GeneID 37755)	1	3.49e6	3.75e6	4.20e6
6	Sesn (GeneID 37755)	2	3.86e6	4.38e6	4.23e6
7	Sesn (GeneID 37755)	3	3.76e6	4.46e6	4.00e6
8	CG10341 (GeneID 35125)	1	3.52e6	3.97e6	4.02e6
9	dsf (GeneID 33823)	1	3.53e6	4.14e6	3.86e6
10	CG2310 (GeneID 43473)	1	3.44e6	3.83e6	3.92e6
11	sstn (GeneID 39643)	1	3.41e6	3.83e6	3.84e6
12	Lcp3 (GeneID 35819)	1	3.55e6	4.03e6	4.02e6
13	Obp99b (GeneID 43497)	1	3.33e6	3.73e6	3.73e6
14	Vps24 (GeneID 40542)	1	3.58e6	4.06e6	4.06e6

An excerpt from above, reduced to “viability with MMS, replicate 1”:
Blm (GeneID 41366) = 3.92e6
Pstk + CG14210 + Tim9b = 3.81e6
CG33263 (GeneID 2768952) = 3.92e6

Continued:
no.	gene	reagent	mean viability with MMS	viability with MMS, replicate 1	viability with MMS, replicate 2
15	CG31220 (GeneID 326126)	1	3.47e6	3.95e6	3.94e6
16	CG9014 (GeneID 34777)	1	3.60e6	4.00e6	4.15e6
17	Cks85A (GeneID 41034)	1	3.70e6	4.07e6	4.28e6
18	CG2816 (GeneID 33595)	1	3.57e6	3.98e6	4.11e6
19	Acbp2 (GeneID 38784)	1	3.62e6	3.88e6	4.34e6
20	Ipk1 (GeneID 37360)	1	3.54e6	3.87e6	4.20e6
21	Ipk1 (GeneID 37360)	2	3.49e6	3.98e6	3.94e6
22	Ipk1 (GeneID 37360)	3	3.73e6	4.26e6	4.13e6
23	Sgs5 (GeneID 42114)	1	3.48e6	3.97e6	3.91e6
24	Obp50c + Obp50b	1	3.48e6	4.02e6	3.91e6
25	CG14615 (GeneID 33129)	1	3.48e6	3.99e6	3.92e6
26	CNMa (GeneID 38242)	1	3.52e6	3.99e6	4.00e6
27	SERCA (GeneID 49297)	1	3.64e6	4.36e6	4.14e6
28	Cc2d2a (GeneID 36982)	1	3.65e6	4.06e6	4.19e6
